Measurements: article PMC11304251
Changes are numbered by the printed parent chain. Results are given in words; binding and its absence hold for the method and conditions named. In cells and extracts the contact can be indirect. Some entries that bind do so weakly or less than the wild type.

Sequences of proteins named here, by UniProt entry; tags and fusion partners are left off.
UniProt Q9CPX6: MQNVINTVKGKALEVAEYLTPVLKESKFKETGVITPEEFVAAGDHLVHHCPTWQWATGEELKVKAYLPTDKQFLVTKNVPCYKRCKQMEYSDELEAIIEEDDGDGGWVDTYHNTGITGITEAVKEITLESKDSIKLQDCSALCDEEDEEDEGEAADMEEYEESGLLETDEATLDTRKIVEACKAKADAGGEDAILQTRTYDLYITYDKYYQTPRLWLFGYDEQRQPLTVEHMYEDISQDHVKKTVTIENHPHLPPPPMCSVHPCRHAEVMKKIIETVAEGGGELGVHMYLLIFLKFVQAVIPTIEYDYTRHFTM
UniProt Q99K82: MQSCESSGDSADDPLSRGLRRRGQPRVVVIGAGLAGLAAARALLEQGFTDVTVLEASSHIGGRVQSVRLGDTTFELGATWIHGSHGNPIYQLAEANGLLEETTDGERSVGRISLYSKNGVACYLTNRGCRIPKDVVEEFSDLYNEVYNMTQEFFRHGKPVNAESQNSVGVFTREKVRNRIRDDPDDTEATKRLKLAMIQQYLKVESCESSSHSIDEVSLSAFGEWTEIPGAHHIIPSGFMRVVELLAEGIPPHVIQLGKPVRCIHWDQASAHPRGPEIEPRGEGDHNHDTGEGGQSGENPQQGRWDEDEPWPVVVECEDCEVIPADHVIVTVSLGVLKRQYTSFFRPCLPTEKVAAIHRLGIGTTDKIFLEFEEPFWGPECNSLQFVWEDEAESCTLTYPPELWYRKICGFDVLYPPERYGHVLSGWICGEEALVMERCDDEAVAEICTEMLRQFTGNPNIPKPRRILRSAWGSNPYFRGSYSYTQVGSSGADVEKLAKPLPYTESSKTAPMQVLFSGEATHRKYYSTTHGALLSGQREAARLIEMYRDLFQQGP

Legend:
[1] = target: ATG5, wild type, overexpressed (UniProt Q99J83); assay: co-IP; mTECs transfected with wild-type ATG5, ATG5 MMut or ATG5 SMut (E244A) plasmid
[2] = target: T1, ATG5 multisite-mutated (MMut) (UniProt Q99J83); assay: as above
T1 sequence: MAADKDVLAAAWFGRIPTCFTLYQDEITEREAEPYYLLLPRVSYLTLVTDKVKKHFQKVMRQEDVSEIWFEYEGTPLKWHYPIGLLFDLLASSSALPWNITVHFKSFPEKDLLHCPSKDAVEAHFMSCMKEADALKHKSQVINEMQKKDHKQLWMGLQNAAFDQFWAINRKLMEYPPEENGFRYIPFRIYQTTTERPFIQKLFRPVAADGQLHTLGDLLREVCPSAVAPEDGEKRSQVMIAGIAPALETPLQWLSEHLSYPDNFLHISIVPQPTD

[3] = target: T2, ATG5 E244A single-site mutation (SMut) (UniProt Q99J83); assay: as above
T2 sequence: T1 sequence with A2T, A3D, A9R, A10D, A11V, A160D, A161R, A241H, A246M

[4] = target: ATG3 (mouse (endogenous in mTECs)) (UniProt Q9CPX6); assay: co-IP; co-immunoprecipitation in mTECs of SMOX with ATG5, ATG7 and ATG3; which protein was precipitated is not told
[5] = target: T3, ATG7 (mouse (endogenous in mTECs)) (UniProt Q9D906); assay: as above
T3 sequence: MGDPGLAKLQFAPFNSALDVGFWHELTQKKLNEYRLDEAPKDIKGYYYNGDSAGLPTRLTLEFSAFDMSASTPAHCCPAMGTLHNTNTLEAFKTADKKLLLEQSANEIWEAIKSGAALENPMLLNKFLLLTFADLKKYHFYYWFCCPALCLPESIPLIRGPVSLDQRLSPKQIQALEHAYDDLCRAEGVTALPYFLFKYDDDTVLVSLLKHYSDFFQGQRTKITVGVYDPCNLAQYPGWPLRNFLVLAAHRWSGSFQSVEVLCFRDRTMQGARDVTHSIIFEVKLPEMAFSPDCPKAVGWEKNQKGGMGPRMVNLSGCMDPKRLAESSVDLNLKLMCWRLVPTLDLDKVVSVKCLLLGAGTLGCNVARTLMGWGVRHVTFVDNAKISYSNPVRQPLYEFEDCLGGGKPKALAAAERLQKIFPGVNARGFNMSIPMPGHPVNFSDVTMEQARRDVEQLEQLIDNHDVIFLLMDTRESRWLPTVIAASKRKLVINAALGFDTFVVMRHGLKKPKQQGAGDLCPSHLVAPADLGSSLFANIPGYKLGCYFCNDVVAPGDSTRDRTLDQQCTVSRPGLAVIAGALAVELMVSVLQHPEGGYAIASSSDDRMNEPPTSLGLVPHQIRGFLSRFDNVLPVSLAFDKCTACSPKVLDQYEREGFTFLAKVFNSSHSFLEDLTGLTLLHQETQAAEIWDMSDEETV

[6] = target: ATG5 (mouse (endogenous in mTECs)) (UniProt Q99J83); assay: as above
[7] = target: ATG5, wild type, overexpressed (UniProt Q99J83); assay: co-IP; HEK-293T cells overexpressing both ATG5 and SMOX, with or without TGF-β1 as indicated
[8] = target: ATG5, wild type, overexpressed (UniProt Q99J83); assay: co-IP; mTECs overexpressing both ATG5 and SMOX, with or without TGF-β1

| Substance | binding [1] | binding [2] | binding [3] | binding [4] | binding [5] | binding [6] | binding [7] | binding [8] |
| --- | --- | --- | --- | --- | --- | --- | --- | --- |
| spermine oxidase (SMOX) (from UniProt Q99K82 1-555) (enzyme) | binds | no binding | binds | binds weakly | binds weakly | binds | – | – |
| spermine oxidase (SMOX), overexpressed (from UniProt Q99K82 1-555) (enzyme) | – | – | – | – | – | – | binds | binds |
